Data as given in PubChem BioAssay AID1259405 (NCATS, 2018).
Screen: 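Knock-downs that lift recombinant protein yield in hamster ovary cells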 (primary screen). System: Chinese hamster CHO-K1 ovary cells with stable secreted eGFP expression. Knock-down reagent: single siRNA against mouse genes, 0.8 pmol siRNA per well (2 µl of 400 nM stock). Time to read-out: 3 days. Read-out: 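Per-well intracellular GFP measured by laser scanning cytometry, plus viability from ATP luminescence, each relative to plate median of non-targeting control wells, in %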. Scale: GFP, % of control: higher = more GFP per well, higher productivity; viability (ATP), % of control: higher = more viable cells (more ATP). Call rule: 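a knock-down is called active if GFP reaches 120% or more of non-targeting control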.
Here is an unselected part of about 50,000 reagents. In the full data, about 4,000 (8%) got an active call. 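Mouse siRNA library applied to hamster cells; one well for each siRNA.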 No sequences are given here.

With Or2a12 [SID363544715], how do the results read?
GFP, % of control: 91.6; viability (ATP), % of control: 85.6; outcome: inactive

For Or2a12 [SID363551043], what was measured?
GFP, % of control: 90.5; viability (ATP), % of control: 77.9; outcome: inactive

How did the screen score Or2a12 [SID363557592]?
GFP, % of control: 80.8; viability (ATP), % of control: 36.3; outcome: inactive

For Dand5 [SID363539630], what was measured?
GFP, % of control: 81.3; viability (ATP), % of control: 78; outcome: inactive

Which result is listed for Dand5 [SID363560931]?
GFP, % of control: 200; viability (ATP), % of control: 108; outcome: active

What is on record for Dand5 [SID363565021]?
GFP, % of control: 59.3; viability (ATP), % of control: 20.4; outcome: inactive

What is on record for Gimap7 [SID363540491]?
GFP, % of control: 62.4; viability (ATP), % of control: 69.5; outcome: inactive

With Gimap7 [SID363542243], how do the results read?
GFP, % of control: 129; viability (ATP), % of control: 78.2; outcome: active

For Gimap7 [SID363567159], how do the results read?
GFP, % of control: 108; viability (ATP), % of control: 98.7; outcome: inactive

What is on record for Mrpl54 [SID363562200]?
GFP, % of control: 108; viability (ATP), % of control: 76.7; outcome: inactive

Which result is listed for Mrpl54 [SID363567338]?
GFP, % of control: 150; viability (ATP), % of control: 61.4; outcome: active

What is on record for Mrpl54 [SID363584695]?
GFP, % of control: 69.6; viability (ATP), % of control: 74.4; outcome: inactive

With Mixl1 [SID363569377], what was measured?
GFP, % of control: 65.9; viability (ATP), % of control: 88.7; outcome: inactive

For Mixl1 [SID363577121], what was measured?
GFP, % of control: 86.9; viability (ATP), % of control: 65.6; outcome: inactive

With Mixl1 [SID363578529], how do the results read?
GFP, % of control: 130; viability (ATP), % of control: 89.1; outcome: active

What is on record for Tnip3 [SID363552456]?
GFP, % of control: 63.6; viability (ATP), % of control: 56.9; outcome: inactive

What is on record for Tnip3 [SID363585592]?
GFP, % of control: 68; viability (ATP), % of control: 65.7; outcome: inactive

With Tnip3 [SID363585943], what was measured?
GFP, % of control: 45.2; viability (ATP), % of control: 59.4; outcome: inactive

For D930030D11Rik [SID363539535], what was measured?
GFP, % of control: 67.4; viability (ATP), % of control: 71.2; outcome: inactive

What is on record for D930030D11Rik [SID363560836]?
GFP, % of control: 13.4; viability (ATP), % of control: 28.5; outcome: inactive

What did the screen give for D930030D11Rik [SID363564926]?
GFP, % of control: 132; viability (ATP), % of control: 60.3; outcome: active

How did the screen score Ccdc121rt1 [SID363552138]?
GFP, % of control: 65.3; viability (ATP), % of control: 74.7; outcome: inactive

How did the screen score Ccdc121rt1 [SID363585274]?
GFP, % of control: 161; viability (ATP), % of control: 117; outcome: active

With Ccdc121rt1 [SID363585625], how do the results read?
GFP, % of control: 131; viability (ATP), % of control: 167; outcome: active

For Sh3d19 [SID363554967], how do the results read?
GFP, % of control: 84.6; viability (ATP), % of control: 89.1; outcome: inactive

What did the screen give for Sh3d19 [SID363568414]?
GFP, % of control: 51.2; viability (ATP), % of control: 67; outcome: inactive

For Sh3d19 [SID363586473], what was measured?
GFP, % of control: 62.6; viability (ATP), % of control: 78.7; outcome: inactive

For Setd3 [SID363550156], what does the deposit list?
GFP, % of control: 103; viability (ATP), % of control: 84; outcome: inactive

For Setd3 [SID363564665], how do the results read?
GFP, % of control: 135; viability (ATP), % of control: 82.2; outcome: active

For Setd3 [SID363588210], what does the deposit list?
GFP, % of control: 109; viability (ATP), % of control: 119; outcome: inactive

How did the screen score Hpd [SID363572854]?
GFP, % of control: 141; viability (ATP), % of control: 83.2; outcome: active

For Hpd [SID363577430], what does the deposit list?
GFP, % of control: 69.7; viability (ATP), % of control: 78.2; outcome: inactive

For Hpd [SID363580950], how do the results read?
GFP, % of control: 26.2; viability (ATP), % of control: 31.8; outcome: inactive

What is on record for Hs6st3 [SID363570520]?
GFP, % of control: 93.3; viability (ATP), % of control: 100; outcome: inactive

For Hs6st3 [SID363579320], what does the deposit list?
GFP, % of control: 112; viability (ATP), % of control: 106; outcome: inactive

What did the screen give for Hs6st3 [SID363583192]?
GFP, % of control: 133; viability (ATP), % of control: 130; outcome: active

For 4930474N05Rik [SID363542558], what does the deposit list?
GFP, % of control: 92.8; viability (ATP), % of control: 61.8; outcome: inactive

With 4930474N05Rik [SID363552049], what does the deposit list?
GFP, % of control: 69; viability (ATP), % of control: 63; outcome: inactive

Which result is listed for 4930474N05Rik [SID363559654]?
GFP, % of control: 65.1; viability (ATP), % of control: 91.3; outcome: inactive

Which result is listed for Zbtb7a [SID363569237]?
GFP, % of control: 116; viability (ATP), % of control: 115; outcome: inactive

Which result is listed for Zbtb7a [SID363583669]?
GFP, % of control: 93.1; viability (ATP), % of control: 94.3; outcome: inactive

Quoted from the listing, 3 entries:
Mixl1 [SID363577121] — GFP, % of control = 86.9; viability (ATP), % of control = 65.6; outcome = inactive
Mixl1 [SID363578529] — GFP, % of control = 130; viability (ATP), % of control = 89.1; outcome = active
Tnip3 [SID363552456] — GFP, % of control = 63.6; viability (ATP), % of control = 56.9; outcome = inactive
